Measurements: patent US9358261B2, “Additional artemisinin and berberine compositions and methods of making” (U.S. Phytotherapy, Inc., priority 2011, dated 2016)
At least one compound was matched to its structure with a doubt left.

Test system: Lyme disease
Assay: Lyme Disease Case Study #2
Format: in vivo, human
Details: treatments before coACT A-B, person
Text: They worked as a full-time project manager for a non-profit food bank, and lives in the United States. Their symptoms first appeared in August of 2010. When […] was first diagnosed they had skin rashes that were not helped with topical treatments, low-grade fevers, severe migraines, continuous muscle aches, sore throat, stomach pain, joint pains, gynecological issues, and constant fatigue. The initial indication was hives on stomach and back which grew to circular rashes on both thighs, all directly following an insect bite from a horse fly.
From these professionals they were diagnosed not only with Lyme disease, but the following diagnoses and/or misdiagnoses: fibromyalgia, depression, arthritis, pinched nerve, burning mouth syndrome, and mycotoxic poisoning. By May 2011 they were confirmed with Lyme disease and subsequently reconfirmed by another physician in August 2011. Their case of Lyme disease was clinically diagnosed based on lab findings, Western Blot, and symptomatology. […] Tindamax was likewise not tolerated. […] Other anti-fungals caused pain and further reduced their energy levels.
[…] They reported climbing the lighthouse stairs in St. Augustine, Fla. without suffering a decrease in energy afterwards, which was atypical for them at that time. […]

## C[C@H]1c2cccc(O)c2C(=O)C2=C(O)[C@]3(O)C(=O)C(C(N)=O)=C(O)[C@@H](N(C)C)[C@@H]3[C@@H](O)[C@@H]21 [Doxycycline]
  outcome of earlier treatments in patient history: helped eliminate their then inability to talk and walk
